Results deposited as PubChem BioAssay AID652259 (Drosophila RNAi Screening Center, 2013).
Test: 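Knock-downs that push a Wingless-driven reporter up or down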 (primary screen). Cells: Drosophila clone 8 imaginal disc epithelial cells. Reagents: long dsRNA against Drosophila genes. Challenge: pathway stimulated by co-transfected Wingless expression plasmid. Read-out: 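Firefly luciferase from a tcf-site Wingless reporter, measured alongside co-transfected Renilla luciferase that tracks transfection; pathway stimulated by a Wingless plasmid; the firefly-to-Renilla ratio is not deposited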. Reading the numbers: firefly reporter light: higher = more Wg reporter light, before normalisation; Renilla control light: higher = more transfected or surviving cells. Active means: 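a knock-down is a candidate when at least two out of four statistical tests show it departing from its plate mean; one test alone signals a weak candidate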. Meaning of the calls: active = candidate regulator (raises or lowers reporter); inactive = not a candidate.
In all, the deposit lists about 22,000 reagents; below is a random part of those with a known target gene and a result. In the full data, 233 (1.1%) are marked active. 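Light values are raw, unnormalised plate reads; the ratio scores behind the reporter calls were not deposited.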 The record does not give: the amount of reagent, the time to read-out, the dose of the treatment.

predicted target | DRSC id | firefly reporter light, replicate 1 | firefly reporter light, replicate 2 | Renilla control light, replicate 1 | Renilla control light, replicate 2 | outcome
Iml1 | DRSC08249 | 11725 | – | 5152 | – | inactive
Adgf-A2 | DRSC09507 | 3308 | – | 1190 | – | inactive
Nt5b | DRSC19976 | 2069 | 7499 | 896 | 3312 | inactive
Nt5b | DRSC19977 | 24581 | – | 12841 | – | inactive
Nt5b | DRSC19978 | 17559 | – | 11315 | – | inactive
Nt5b | DRSC22588 | 7.29e5 | 6.84e5 | 2.55e5 | 90366 | inactive
CG15153 | DRSC02454 | 2220 | 5280 | 1077 | 2136 | inactive
CG6724 | DRSC02983 | 2466 | 6644 | 1541 | 4388 | inactive
beta-PheRS | DRSC15859 | 1514 | 4633 | 684 | 1530 | inactive
CG31007 | DRSC14029 | 2851 | – | 1476 | – | inactive
whd | DRSC07351 | 9707 | – | 2833 | – | inactive
CG13045 | DRSC09926 | 8390 | – | 2290 | – | inactive
M7BP | DRSC05053 | 16197 | – | 6708 | – | inactive
M7BP | DRSC05054 | 20141 | – | 8323 | – | inactive
M7BP | DRSC05932 | 8838 | – | 1524 | – | inactive
M7BP | DRSC06701 | 4048 | 6915 | 1012 | 2235 | inactive
M7BP | DRSC06816 | 4632 | 8265 | 1171 | 3063 | inactive
CG1316 | DRSC08304 | 6667 | – | 2582 | – | inactive

2 entries from above, limited to “firefly reporter light, replicate 1”.
beta-PheRS [DRSC15859] = 1514
CG31007 [DRSC14029] = 2851

The listing continues:
predicted target | DRSC id | firefly reporter light, replicate 1 | firefly reporter light, replicate 2 | Renilla control light, replicate 1 | Renilla control light, replicate 2 | outcome
CG30026 | DRSC05276 | 19269 | – | 16043 | – | inactive
Lmpt | DRSC09450 | 5332 | – | 2048 | – | inactive
Lmpt | DRSC09864 | 6832 | – | 2640 | – | inactive
Lmpt | DRSC09865 | 5824 | – | 2211 | – | inactive
Lmpt | DRSC09866 | 9395 | – | 3885 | – | inactive
Lmpt | DRSC11107 | 9789 | – | 4189 | – | inactive
Lmpt | DRSC21738 | 3.67e5 | 3.35e5 | 1.33e5 | 1.16e5 | inactive
Lmpt | DRSC22921 | 1.18e6 | 1.18e6 | 3.04e5 | 65402 | inactive
PGRP-LE | DRSC20137 | 2928 | 5941 | 1101 | 2074 | inactive
CtBP | DRSC16617 | 7171 | – | 2759 | – | inactive
CG5731 | DRSC02883 | 2697 | 6848 | 985 | 2642 | inactive
